Measured data: PubChem BioAssay AID1224826 (NIAID, 2016)

- Purpose: 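Knock-downs that raise or lower Tnf reporter signal after endotoxin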 (primary screen)
- System: RAW264.7 G9 macrophages from mouse bearing reporters for p65 (GFP) and the Tnf promoter (mCherry)
- Reagents: siRNA pool against mouse genes, 100 nM
- Time to read-out: 16 h of LPS stimulation, after 2 days of siRNA transfection
- Treatment: bacterial lipopolysaccharide (Salmonella minnesota R595), 10 ng/ml
- Measurement: 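Imaged Tnf reporter mCherry in nuclei, minus background, normalised per plate to the median and expressed as robust z-scores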
- Scale: Tnf reporter robust z-score: higher = stronger Tnf promoter reporter signal after LPS
- Call rule: 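a well counts as active at a score of -1.3 or below (Tlr4 knock-down control median) or above 3 (raised signal); controls and wells holding fewer than 50 cells are excluded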
- Meaning of the calls: active = Tnf reporter clearly lowered or raised; inactive = no clear change in Tnf reporter
The whole screen tested about 17,000 reagents; shown is a random part of them. Over the whole deposit, about 1,110 (6.6%) were called active. 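Active means lowered or raised reporter signal; replicate intensities are raw and not normalised per plate.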 Not all columns of the deposit are shown. Reagent sequences are not shown.

gene | Tnf reporter robust z-score | fewer than 50 cells in well | Outcome
Sfmbt2 (Scm-like with four mbt domains 2) | 0.12 | enough cells in well | inactive
Lrtm2 (leucine-rich repeats and transmembrane domains 2) | 0.38 | enough cells in well | inactive
Rbp7 (retinol binding protein 7, cellular) | -0.23 | enough cells in well | inactive
Tnfrsf17 (tumor necrosis factor receptor superfamily, member 17) | -1.26 | enough cells in well | inactive
Cryge (crystallin, gamma E) | 0.83 | enough cells in well | inactive
Rdh16f2 (RDH16 family member 2) | -1.59 | enough cells in well | active
Spesp1 (sperm equatorial segment protein 1) | -0.99 | enough cells in well | inactive
Zswim1 (zinc finger SWIM-type containing 1) | -1.09 | enough cells in well | inactive
Zfp638 (zinc finger protein 638) | 0.13 | enough cells in well | inactive
Rasa4 (RAS p21 protein activator 4) | -0.84 | enough cells in well | inactive
Spink2 (serine peptidase inhibitor, Kazal type 2) | 0.43 | enough cells in well | inactive
Serpini1 (serine (or cysteine) peptidase inhibitor, clade I, member 1) | 0.05 | enough cells in well | inactive
Zfp62 (zinc finger protein 62) | 0.62 | enough cells in well | inactive
Pax9 (paired box 9) | -0.1 | enough cells in well | inactive
Rgs8 (regulator of G-protein signaling 8) | 1.52 | enough cells in well | inactive
Il1r1 (interleukin 1 receptor, type I) | -1.03 | enough cells in well | inactive
Tex13b (testis expressed 13B) | 1.36 | enough cells in well | inactive
Rfesd (Rieske (Fe-S) domain containing) | -0.09 | enough cells in well | inactive
Sash1 (SAM and SH3 domain containing 1) | 0.36 | enough cells in well | inactive
Rtkn (rhotekin) | -0.14 | enough cells in well | inactive
Dnal4 (dynein, axonemal, light chain 4) | -0.24 | enough cells in well | inactive
Crygc (crystallin, gamma C) | -0.95 | enough cells in well | inactive
Qrfpr (pyroglutamylated RFamide peptide receptor) | -0.02 | enough cells in well | inactive
Ufsp2 (UFM1-specific peptidase 2) | 2.09 | enough cells in well | inactive
Akr1b8 (aldo-keto reductase family 1, member B8) | -1.04 | enough cells in well | inactive
Pdcl (phosducin-like) | -0.35 | enough cells in well | inactive
Vax2 (ventral anterior homeobox 2) | -0.73 | enough cells in well | inactive
Sertad3 (SERTA domain containing 3) | 2.49 | enough cells in well | inactive
Spdef (SAM pointed domain containing ets transcription factor) | -0.76 | enough cells in well | inactive
Calcr (calcitonin receptor) | -0.14 | enough cells in well | inactive
Atp11b (ATPase, class VI, type 11B) | 0.21 | enough cells in well | inactive
Or5b117 (olfactory receptor family 5 subfamily B member 117) | -0.63 | enough cells in well | inactive
Gprin3 (GPRIN family member 3) | 1.64 | enough cells in well | inactive
Sstr5 (somatostatin receptor 5) | 0.71 | enough cells in well | inactive
Cfp (complement factor properdin) | 0.83 | enough cells in well | inactive
Nlrp4b (NLR family, pyrin domain containing 4B) | -1.11 | enough cells in well | inactive
Srsf10 (serine and arginine-rich splicing factor 10) | 0.26 | enough cells in well | inactive
Itpkb (inositol 1,4,5-trisphosphate 3-kinase B) | -1.42 | enough cells in well | active
Pdzk1ip1 (PDZK1 interacting protein 1) | -0.69 | enough cells in well | inactive
Asb8 (ankyrin repeat and SOCS box-containing 8) | -0.59 | enough cells in well | inactive

Part of the list above, reformatted.
gene	Tnf reporter robust z-score	fewer than 50 cells in well	Outcome
Rgs8 (regulator of G-protein signaling 8)	1.52	enough cells in well	inactive
Il1r1 (interleukin 1 receptor, type I)	-1.03	enough cells in well	inactive
